The list shows a part of the results.

Chains of the proteins cited; added tags and fusions are not shown. Lines headed by an entry give the natural chain unless they say otherwise; changes in a name come on top.
UniProt Q8N2G8: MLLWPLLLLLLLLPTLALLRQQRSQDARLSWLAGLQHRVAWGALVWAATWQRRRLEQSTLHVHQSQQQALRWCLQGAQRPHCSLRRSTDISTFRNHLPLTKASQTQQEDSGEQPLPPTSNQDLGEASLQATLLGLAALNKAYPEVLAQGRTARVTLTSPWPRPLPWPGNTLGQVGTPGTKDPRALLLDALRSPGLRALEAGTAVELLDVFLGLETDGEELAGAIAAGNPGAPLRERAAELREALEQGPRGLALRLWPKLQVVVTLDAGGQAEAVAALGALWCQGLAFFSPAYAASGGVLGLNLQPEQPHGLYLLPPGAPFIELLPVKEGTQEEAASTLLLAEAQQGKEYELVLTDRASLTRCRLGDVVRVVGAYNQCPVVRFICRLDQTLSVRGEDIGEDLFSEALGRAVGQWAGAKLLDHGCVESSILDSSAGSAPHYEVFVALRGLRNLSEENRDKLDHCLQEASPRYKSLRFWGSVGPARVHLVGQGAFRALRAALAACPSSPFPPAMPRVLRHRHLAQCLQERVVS
UniProt Q92820: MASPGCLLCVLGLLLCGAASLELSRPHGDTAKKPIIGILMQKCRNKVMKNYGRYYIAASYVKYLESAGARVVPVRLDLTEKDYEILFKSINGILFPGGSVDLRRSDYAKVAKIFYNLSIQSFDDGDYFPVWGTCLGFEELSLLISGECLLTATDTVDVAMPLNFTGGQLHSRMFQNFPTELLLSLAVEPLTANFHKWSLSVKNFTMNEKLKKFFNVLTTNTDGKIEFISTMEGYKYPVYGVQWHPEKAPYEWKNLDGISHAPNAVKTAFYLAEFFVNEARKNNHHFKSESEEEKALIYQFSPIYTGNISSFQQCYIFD
UniProt O15228: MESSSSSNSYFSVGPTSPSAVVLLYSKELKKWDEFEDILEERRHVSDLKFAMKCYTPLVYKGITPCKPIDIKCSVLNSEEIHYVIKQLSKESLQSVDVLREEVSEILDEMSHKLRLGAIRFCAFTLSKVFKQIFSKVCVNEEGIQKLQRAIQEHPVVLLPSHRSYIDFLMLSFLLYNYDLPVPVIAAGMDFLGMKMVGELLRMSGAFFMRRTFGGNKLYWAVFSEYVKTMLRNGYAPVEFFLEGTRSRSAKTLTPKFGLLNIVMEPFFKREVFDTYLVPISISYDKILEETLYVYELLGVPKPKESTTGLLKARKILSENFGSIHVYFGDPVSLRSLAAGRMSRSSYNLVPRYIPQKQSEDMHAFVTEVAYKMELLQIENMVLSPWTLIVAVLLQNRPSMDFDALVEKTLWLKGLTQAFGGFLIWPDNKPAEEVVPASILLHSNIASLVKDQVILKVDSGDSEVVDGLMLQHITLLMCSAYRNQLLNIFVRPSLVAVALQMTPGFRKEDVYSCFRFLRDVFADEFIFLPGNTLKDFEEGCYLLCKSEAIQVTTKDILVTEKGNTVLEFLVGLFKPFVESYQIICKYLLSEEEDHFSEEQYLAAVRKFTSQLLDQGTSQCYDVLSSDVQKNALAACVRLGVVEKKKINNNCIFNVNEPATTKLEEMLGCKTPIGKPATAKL
UniProt Q14956: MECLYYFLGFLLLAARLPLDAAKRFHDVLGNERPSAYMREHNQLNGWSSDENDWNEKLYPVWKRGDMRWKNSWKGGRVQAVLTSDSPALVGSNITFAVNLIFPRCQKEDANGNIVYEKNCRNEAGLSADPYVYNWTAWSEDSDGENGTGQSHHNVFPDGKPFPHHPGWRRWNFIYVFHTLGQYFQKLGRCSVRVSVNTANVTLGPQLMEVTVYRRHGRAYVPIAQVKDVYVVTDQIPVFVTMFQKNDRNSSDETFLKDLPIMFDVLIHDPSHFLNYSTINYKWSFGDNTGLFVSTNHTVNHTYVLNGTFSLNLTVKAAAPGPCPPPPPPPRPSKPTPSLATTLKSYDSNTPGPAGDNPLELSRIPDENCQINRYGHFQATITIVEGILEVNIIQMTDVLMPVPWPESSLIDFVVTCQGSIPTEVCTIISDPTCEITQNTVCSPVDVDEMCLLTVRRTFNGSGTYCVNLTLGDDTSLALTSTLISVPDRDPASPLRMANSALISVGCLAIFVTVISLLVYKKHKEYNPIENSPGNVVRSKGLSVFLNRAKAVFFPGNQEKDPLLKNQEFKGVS
UniProt O94925: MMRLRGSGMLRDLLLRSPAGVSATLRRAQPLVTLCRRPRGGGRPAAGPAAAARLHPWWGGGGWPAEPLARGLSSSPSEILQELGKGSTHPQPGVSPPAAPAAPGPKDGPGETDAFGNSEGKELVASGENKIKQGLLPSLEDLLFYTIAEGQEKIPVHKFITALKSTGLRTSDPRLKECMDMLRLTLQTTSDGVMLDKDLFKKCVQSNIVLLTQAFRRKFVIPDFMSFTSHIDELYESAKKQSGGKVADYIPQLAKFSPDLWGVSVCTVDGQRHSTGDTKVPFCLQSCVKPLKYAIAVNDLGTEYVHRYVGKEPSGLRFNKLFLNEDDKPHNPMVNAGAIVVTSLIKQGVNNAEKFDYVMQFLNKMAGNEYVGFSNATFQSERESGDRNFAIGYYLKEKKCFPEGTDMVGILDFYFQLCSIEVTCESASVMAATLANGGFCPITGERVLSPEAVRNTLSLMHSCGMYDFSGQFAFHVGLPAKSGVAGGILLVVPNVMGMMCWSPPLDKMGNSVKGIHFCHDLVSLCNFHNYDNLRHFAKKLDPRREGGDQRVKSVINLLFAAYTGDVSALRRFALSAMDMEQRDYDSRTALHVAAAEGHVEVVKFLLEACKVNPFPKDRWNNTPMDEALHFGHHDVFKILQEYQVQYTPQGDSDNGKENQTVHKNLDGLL
UniProt Q9NZD2: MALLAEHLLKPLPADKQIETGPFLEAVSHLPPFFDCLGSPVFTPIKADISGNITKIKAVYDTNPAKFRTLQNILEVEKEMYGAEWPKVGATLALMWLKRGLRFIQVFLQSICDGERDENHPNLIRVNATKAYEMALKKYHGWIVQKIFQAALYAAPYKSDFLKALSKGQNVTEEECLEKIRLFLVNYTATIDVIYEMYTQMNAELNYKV
UniProt O94923: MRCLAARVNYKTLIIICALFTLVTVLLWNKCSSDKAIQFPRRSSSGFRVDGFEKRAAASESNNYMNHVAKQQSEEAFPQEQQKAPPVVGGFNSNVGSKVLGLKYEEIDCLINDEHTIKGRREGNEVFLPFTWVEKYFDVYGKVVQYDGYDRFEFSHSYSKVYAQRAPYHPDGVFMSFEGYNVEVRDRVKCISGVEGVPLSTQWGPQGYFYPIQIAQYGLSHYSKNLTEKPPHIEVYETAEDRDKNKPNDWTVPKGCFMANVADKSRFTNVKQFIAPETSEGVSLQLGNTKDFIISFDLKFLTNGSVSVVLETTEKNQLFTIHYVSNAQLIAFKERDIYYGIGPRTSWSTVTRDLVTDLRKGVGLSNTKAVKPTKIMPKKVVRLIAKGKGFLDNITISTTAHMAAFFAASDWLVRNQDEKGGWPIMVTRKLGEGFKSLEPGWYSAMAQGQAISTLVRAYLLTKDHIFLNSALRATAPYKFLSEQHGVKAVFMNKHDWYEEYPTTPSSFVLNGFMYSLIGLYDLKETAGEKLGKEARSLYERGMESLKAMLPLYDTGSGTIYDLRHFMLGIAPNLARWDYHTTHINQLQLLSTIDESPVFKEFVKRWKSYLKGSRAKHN
UniProt Q9H9Y4: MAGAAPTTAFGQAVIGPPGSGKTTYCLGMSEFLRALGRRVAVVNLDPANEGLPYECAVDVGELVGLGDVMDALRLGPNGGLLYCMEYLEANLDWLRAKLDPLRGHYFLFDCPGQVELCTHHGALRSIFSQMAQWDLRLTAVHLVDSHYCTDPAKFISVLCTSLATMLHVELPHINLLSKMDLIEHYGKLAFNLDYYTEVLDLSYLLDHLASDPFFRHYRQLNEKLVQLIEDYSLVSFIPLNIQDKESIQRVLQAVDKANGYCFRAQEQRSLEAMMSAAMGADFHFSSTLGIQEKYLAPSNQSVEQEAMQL
UniProt I6L899: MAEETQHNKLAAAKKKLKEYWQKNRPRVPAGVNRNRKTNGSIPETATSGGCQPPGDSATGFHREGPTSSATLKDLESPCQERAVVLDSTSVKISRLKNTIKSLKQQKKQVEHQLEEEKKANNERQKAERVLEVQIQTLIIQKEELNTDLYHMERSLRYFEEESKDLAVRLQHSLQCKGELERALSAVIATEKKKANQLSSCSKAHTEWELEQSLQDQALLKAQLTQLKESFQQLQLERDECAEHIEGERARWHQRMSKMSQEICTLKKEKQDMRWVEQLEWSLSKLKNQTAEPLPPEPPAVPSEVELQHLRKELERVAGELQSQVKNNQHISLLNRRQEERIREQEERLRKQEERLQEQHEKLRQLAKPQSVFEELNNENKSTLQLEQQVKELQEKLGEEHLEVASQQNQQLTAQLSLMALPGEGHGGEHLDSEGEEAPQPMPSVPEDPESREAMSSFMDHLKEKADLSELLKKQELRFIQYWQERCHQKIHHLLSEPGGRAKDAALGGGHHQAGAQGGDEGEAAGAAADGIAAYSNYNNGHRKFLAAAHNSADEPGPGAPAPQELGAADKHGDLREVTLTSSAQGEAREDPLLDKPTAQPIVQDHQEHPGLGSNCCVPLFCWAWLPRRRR
UniProt Q99795: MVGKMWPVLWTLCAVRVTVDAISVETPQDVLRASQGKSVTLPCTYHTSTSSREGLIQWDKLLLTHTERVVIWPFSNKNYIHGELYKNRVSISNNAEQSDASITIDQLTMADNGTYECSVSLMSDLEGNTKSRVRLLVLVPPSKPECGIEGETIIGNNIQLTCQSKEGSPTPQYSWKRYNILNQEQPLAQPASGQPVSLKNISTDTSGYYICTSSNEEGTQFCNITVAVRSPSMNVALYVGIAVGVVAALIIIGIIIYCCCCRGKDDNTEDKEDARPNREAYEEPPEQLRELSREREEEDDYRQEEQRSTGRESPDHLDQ
UniProt Q9UHW5, whole entry, looked up: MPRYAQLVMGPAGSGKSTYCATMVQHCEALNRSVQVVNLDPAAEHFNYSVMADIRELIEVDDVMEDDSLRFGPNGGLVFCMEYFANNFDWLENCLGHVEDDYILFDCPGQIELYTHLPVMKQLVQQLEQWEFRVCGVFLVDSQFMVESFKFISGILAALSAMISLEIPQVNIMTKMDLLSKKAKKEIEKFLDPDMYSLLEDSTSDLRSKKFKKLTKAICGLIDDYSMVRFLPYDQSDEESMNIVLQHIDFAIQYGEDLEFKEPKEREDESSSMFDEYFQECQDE
UniProt P63092, whole entry, looked up: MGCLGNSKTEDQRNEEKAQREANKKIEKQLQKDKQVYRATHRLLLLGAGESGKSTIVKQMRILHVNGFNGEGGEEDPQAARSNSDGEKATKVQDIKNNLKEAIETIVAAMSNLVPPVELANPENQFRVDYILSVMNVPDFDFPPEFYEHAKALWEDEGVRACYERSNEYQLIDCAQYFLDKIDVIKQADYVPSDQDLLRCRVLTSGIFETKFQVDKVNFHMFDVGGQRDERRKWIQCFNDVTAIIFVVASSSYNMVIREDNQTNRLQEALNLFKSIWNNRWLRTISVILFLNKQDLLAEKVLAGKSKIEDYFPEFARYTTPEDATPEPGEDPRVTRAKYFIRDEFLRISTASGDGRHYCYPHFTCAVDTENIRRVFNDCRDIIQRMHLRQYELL
UniProt Q03113, whole entry, looked up: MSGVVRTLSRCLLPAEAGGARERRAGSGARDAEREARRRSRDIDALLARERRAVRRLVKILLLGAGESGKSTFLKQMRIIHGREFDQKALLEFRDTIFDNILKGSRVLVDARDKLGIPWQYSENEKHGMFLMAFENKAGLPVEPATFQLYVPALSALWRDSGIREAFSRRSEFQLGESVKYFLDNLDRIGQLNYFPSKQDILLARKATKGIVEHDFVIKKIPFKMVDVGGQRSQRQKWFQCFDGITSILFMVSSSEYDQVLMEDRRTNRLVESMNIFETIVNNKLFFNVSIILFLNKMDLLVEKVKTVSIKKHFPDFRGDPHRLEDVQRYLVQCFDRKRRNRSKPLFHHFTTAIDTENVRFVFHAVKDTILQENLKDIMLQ
UniProt P16278: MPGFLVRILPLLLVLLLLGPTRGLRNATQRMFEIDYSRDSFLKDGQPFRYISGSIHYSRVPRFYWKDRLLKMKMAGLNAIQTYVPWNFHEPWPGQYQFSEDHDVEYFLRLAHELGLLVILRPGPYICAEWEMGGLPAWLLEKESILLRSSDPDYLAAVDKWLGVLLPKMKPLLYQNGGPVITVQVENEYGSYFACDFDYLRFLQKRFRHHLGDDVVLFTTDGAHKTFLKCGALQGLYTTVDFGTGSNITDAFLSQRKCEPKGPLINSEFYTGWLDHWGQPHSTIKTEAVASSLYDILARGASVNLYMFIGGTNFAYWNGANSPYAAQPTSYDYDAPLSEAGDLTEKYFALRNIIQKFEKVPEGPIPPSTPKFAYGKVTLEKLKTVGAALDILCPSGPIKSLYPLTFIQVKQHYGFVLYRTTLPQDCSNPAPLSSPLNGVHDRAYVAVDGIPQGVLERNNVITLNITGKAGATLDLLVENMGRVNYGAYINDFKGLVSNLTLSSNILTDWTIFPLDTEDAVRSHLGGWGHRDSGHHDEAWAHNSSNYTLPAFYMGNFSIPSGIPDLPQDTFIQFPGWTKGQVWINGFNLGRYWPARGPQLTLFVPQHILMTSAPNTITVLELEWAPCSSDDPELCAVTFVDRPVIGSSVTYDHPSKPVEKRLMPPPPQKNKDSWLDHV

Compound in one test: CS(=O)(=O)CCNCc1ccc(-c2ccc3ncnc(Nc4ccc(OCc5cccc(F)c5)c(Cl)c4)c3c2)o1 [lapatinib]
Put plainly: log2 fold change, soluble protein after heating vs DMSO (PISA); higher = thermal stabilisation; K562 lysate, 10 uM; active = over 0.2 and 3.5 SD of the protein, either way, in both replicates (recomputed). An outline of the steps: (§1)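 Thermal stability, expressed as log-two fold change relative to solvent controls, is given from duplicates. Crude K562 extract in PBS pH 7.4 with 1 mM MgCl2, at 1 mg/mL protein, was treated with 10 μM compound for 30 min and heated in aliquots for 3 min across 48°C-58°C. After pooling, adjustment to 0.5% NP-40 at 4°C and centrifugation at 21,000xg for 90 min, supernatant protein was measured by TMTpro 16plex LC-MS/MS with channel sums equalised.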
Take GHDC (UniProt Q8N2G8): the log2 fold change was inactive: 0.01.
Same read-out and setting: the value for GGH (UniProt Q92820) was inactive: -0.006; that for GNPAT (UniProt O15228) was inactive: -0.025; that for GPNMB (UniProt Q14956) was inactive: -0.245.
The same measure, in the same setting: the value for GLS isoform 3 (UniProt O94925) was inactive: 0.029.
For the target GLTP (UniProt Q9NZD2), the log2 fold change is inactive: 0.071.
Take GLCE (UniProt O94923): the log2 fold change was inactive: -0.066.
Still for that read-out and setting: the value for GPN2 (UniProt Q9H9Y4) was inactive: 0.041.
Still for that read-out and setting: the value for GPR89A (UniProt B7ZAQ6) was inactive: -0.168; that for GOLGA8R (UniProt I6L899) was inactive: -0.124.
In the case of GPA33 (UniProt Q99795), the log2 fold change is inactive: -0.064.
As for GMPR (UniProt P36959), the log2 fold change is inactive: 0.012.
Same read-out and setting: in the case of GORASP1 (UniProt Q9BQQ3) it was inactive: -0.031; in that of GPN3 isoform 2 (UniProt Q9UHW5), inactive: 0.011; in that of GNAS isoform 3 (UniProt P63092), inactive: -0.017.
Regarding GNA12 (UniProt Q03113), the log2 fold change was inactive: -0.41.
On the same count and under the same terms, in the case of GLB1 (UniProt P16278) it was inactive: -0.02.

Compound in another test: CS(=O)(=O)N1CCN(Cc2cc3nc(-c4cccc5[nH]ncc45)nc(N4CCOCC4)c3s2)CC1 [pictilisib]
Described as above. An outline of the steps:
as §1
In the case of GNPTAB (UniProt Q3T906), the log2 fold change is inactive: -0.065.
Regarding GOLGA4 (UniProt Q13439), the log2 fold change was inactive: 0.401.
Same read-out and setting: the value for GHDC (UniProt Q8N2G8) was inactive: -0.057; that for GGH (UniProt Q92820) was inactive: 0.071.
Consider GNPAT (UniProt O15228), for which the log2 fold change is inactive: -0.047.
On the same count and under the same terms, the value for GPNMB (UniProt Q14956) was inactive: -0.048.
Same read-out and setting: in the case of GLS isoform 3 (UniProt O94925) it was inactive: -0.077.
Still for that read-out and setting: in the case of GLTP (UniProt Q9NZD2) it was inactive: -0.039.
Consider GPRASP2 (UniProt Q96D09), for which the log2 fold change is inactive: 0.104.
Take GLCE (UniProt O94923): the log2 fold change was inactive: -0.063.
GNAS isoform 2 (UniProt Q5JWF2): the log2 fold change is inactive: -0.019.
Take GPR89A (UniProt B7ZAQ6): the log2 fold change is inactive: 0.028.
Turning to GOLGA8R (UniProt I6L899), the log2 fold change is inactive: -0.068.
On to GOSR1 (UniProt E9PCW1), for which the log2 fold change was inactive: -0.028.
With GPA33 (UniProt Q99795), the log2 fold change is inactive: 0.059.
The same measure, in the same setting: in the case of GMPR (UniProt P36959) it was inactive: -0.029; in that of GPN3 isoform 2 (UniProt Q9UHW5), inactive: -0.024.
With GNA12 (UniProt Q03113), the log2 fold change is inactive: 0.038.
Consider GLB1 (UniProt P16278), for which the log2 fold change was inactive: 0.001.
The same measure, in the same setting: the value for GLDC (UniProt P23378) was inactive: 0.112.

Compound in a further test: C[C@@H](Oc1cc(-c2cnn(C3CCNCC3)c2)cnc1N)c1c(Cl)ccc(F)c1Cl [crizotinib]
The description is as above. The method in brief: as §1
Consider GLMP (UniProt Q8WWB7), for which the log2 fold change was inactive: -0.062.
For the target GNPTAB (UniProt Q3T906), the log2 fold change is inactive: -0.066.
GOLIM4 (UniProt F8W785): the log2 fold change is inactive: -0.014.
For GOLGA4 (UniProt Q13439), the log2 fold change is inactive: -0.016.
On the same count and under the same terms, the value for GHDC (UniProt Q8N2G8) was inactive: -0.185; that for GGH (UniProt Q92820) was inactive: -0.046.
Consider GNPAT (UniProt O15228), for which the log2 fold change was inactive: -0.144.
The same measure, in the same setting: in the case of GPSM1 (UniProt Q86YR5) it was inactive: 0.002; in that of GPNMB (UniProt Q14956), inactive: -0.409.
With GLS isoform 3 (UniProt O94925), the log2 fold change was inactive: -0.04.
Still for that read-out and setting: in the case of GLTP (UniProt Q9NZD2) it was inactive: -0.108; in that of GPR68 (UniProt Q15743), inactive: -0.082.
Take GLCE (UniProt O94923): the log2 fold change was inactive: -0.1.
As for GMEB1 isoform 2 (UniProt Q9Y692), the log2 fold change was inactive: 0.146.
The same measure, in the same setting: in the case of GINM1 (UniProt Q9NU53) it was inactive: -0.243; in that of GK5 (UniProt Q6ZS86), inactive: -0.227; in that of GKAP1 (UniProt Q5VSY0), inactive: -0.051.
With GPN2 (UniProt Q9H9Y4), the log2 fold change was inactive: 0.007.
Same read-out and setting: the value for GLRX (UniProt P35754) was inactive: -0.016; that for GPR89A (UniProt B7ZAQ6) was inactive: -0.105.
Still for that read-out and setting: the value for GOLGA8R (UniProt I6L899) was inactive: -0.363; that for GOSR1 (UniProt E9PCW1) was inactive: 0.024.
Still for that read-out and setting: in the case of GPATCH2L (UniProt Q9NWQ4) it was inactive: 0.038.
For the target GMPR (UniProt P36959), the log2 fold change is inactive: 0.05.
Same read-out and setting: the value for GORASP1 (UniProt Q9BQQ3) was inactive: 0.015.
Same read-out and setting: in the case of GPN3 isoform 2 (UniProt Q9UHW5) it was inactive: -0.015; in that of GPLD1 (UniProt P80108), inactive: -0.108.
For the target GNAS isoform 3 (UniProt P63092), the log2 fold change is inactive: -0.11.
As for GNA12 (UniProt Q03113), the log2 fold change was inactive: -0.133.
Same read-out and setting: in the case of GLB1 (UniProt P16278) it was inactive: -0.003; in that of GPR180 (UniProt Q86V85), inactive: -0.17; in that of GPATCH3 (UniProt Q96I76), inactive: -0.092.

Compound in a further test: C[C@H](C1=CC=C(C=C1)C(=O)NC2=C3C=CNC3=NC=C2)N
The description is as above. The method in brief: as §1
Take GNPTAB (UniProt Q3T906): the log2 fold change is inactive: -0.083.
The same measure, in the same setting: the value for GOLIM4 (UniProt F8W785) was inactive: 0.064; that for GHDC (UniProt Q8N2G8) was inactive: -0.018; that for GGH (UniProt Q92820) was inactive: -0.076.
Take GNPAT (UniProt O15228): the log2 fold change was inactive: -0.039.
On the same count and under the same terms, in the case of GNG12 (UniProt Q9UBI6) it was inactive: 0.09.
Still for that read-out and setting: the value for GPNMB (UniProt Q14956) was inactive: -0.703; that for GLS isoform 3 (UniProt O94925) was inactive: 0.038.
On the same count and under the same terms, in the case of GLTP (UniProt Q9NZD2) it was inactive: 0.089.
Regarding GLCE (UniProt O94923), the log2 fold change was inactive: -0.146.
The same measure, in the same setting: the value for GINM1 (UniProt Q9NU53) was inactive: -0.667.
In the case of GPRC5C isoform 2 (UniProt Q9NQ84), the log2 fold change was inactive: -0.046.
Same read-out and setting: the value for GPN2 (UniProt Q9H9Y4) was inactive: -0.035.
On the same count and under the same terms, the value for GPR89A (UniProt B7ZAQ6) was inactive: -0.003; that for GOSR1 (UniProt E9PCW1) was inactive: -0.183.
On to GPA33 (UniProt Q99795), for which the log2 fold change was active: -0.584.
Regarding GMPR (UniProt P36959), the log2 fold change was inactive: 0.071.
On the same count and under the same terms, the value for GORASP1 (UniProt Q9BQQ3) was inactive: -0.103.
Still for that read-out and setting: in the case of GPN3 isoform 2 (UniProt Q9UHW5) it was inactive: -0.086.
Regarding GNAS isoform 3 (UniProt P63092), the log2 fold change is inactive: -0.058.
Take GLB1 (UniProt P16278): the log2 fold change is inactive: -0.017.
On to GNAI1 (UniProt P63096), for which the log2 fold change was inactive: 0.101.
In the case of GPATCH3 (UniProt Q96I76), the log2 fold change was inactive: 0.076.

The values are drawn from the supplement of paper PMC10849652.
